PubChem BioAssay AID1671195 – Yale University | 2021

- Aim: 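Regulators of LDL receptor activity judged by labelled LDL uptake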 (primary screen)
- System: human Huh7 hepatoma cells
- Reagents: siRNA pool against human genes, 18 nM
- Time to read-out: about 2 to 2.5 days of knockdown, then 8 h LDL uptake
- Conditions: DiI-labelled LDL at 30 µg/ml for 8 h, in lipoprotein-deficient serum medium
- Measurement: 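Fluorescent LDL signal imaged in cells, scaled to the plate median, robust z-score for each replicate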
- Direction: robust z-score: higher = more LDL uptake after knockdown
- Call rule: 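a gene counts as active if at least two replicate z-scores exceed ±2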
Shown is a random part of about 22,000 reagents tested. About 1,510 of all reagents (6.9%) count as active. 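Active includes knockdowns raising or lowering LDL uptake; positive z-scores mean more uptake, negative mean less.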

SLPI (secretory leukocyte peptidase inhibitor) showed robust z-score, replicate 1 = -0.642; robust z-score, replicate 2 = 0.267; robust z-score, replicate 3 = -0.608; inactive. Depletion of OR2T11 (olfactory receptor family 2 subfamily T member 11) resulted in: robust z-score, replicate 1 = 1.18; robust z-score, replicate 2 = 0.393; robust z-score, replicate 3 = -0.64; inactive. For LOC442165 (retired record), the entry reads robust z-score, replicate 1 = 0.331; robust z-score, replicate 2 = 0.1; robust z-score, replicate 3 = 0.0949; inactive. With knock-down of GIPC2 (GIPC PDZ domain containing family member 2) the results were robust z-score, replicate 1 = 1.08; robust z-score, replicate 2 = 1.18; robust z-score, replicate 3 = 0.722; inactive. GZMA (granzyme A) showed robust z-score, replicate 1 = 0.688; robust z-score, replicate 2 = 2.09; robust z-score, replicate 3 = 1.19; inactive. ZNF276 (zinc finger protein 276) scored robust z-score, replicate 1 = 2.27; robust z-score, replicate 2 = 1.3; robust z-score, replicate 3 = 1.09; inactive.

Knock-down of AGTRAP (angiotensin II receptor associated protein) came out at: robust z-score, replicate 1 = -0.705; robust z-score, replicate 2 = -0.568; robust z-score, replicate 3 = -0.195; inactive. Against MS4A13 (membrane spanning 4-domains A13) the deposit lists robust z-score, replicate 1 = -0.552; robust z-score, replicate 2 = -0.531; robust z-score, replicate 3 = 0.168; inactive. Depletion of RTL10 (retrotransposon Gag like 10) gave: robust z-score, replicate 1 = 0.734; robust z-score, replicate 2 = 0.942; robust z-score, replicate 3 = 0.836; inactive. CHRAC1 (chromatin accessibility complex subunit 1) showed robust z-score, replicate 1 = -1.03; robust z-score, replicate 2 = -1.54; robust z-score, replicate 3 = -0.912; inactive. After knock-down of LAMC2 (laminin subunit gamma 2), the record shows robust z-score, replicate 1 = -0.861; robust z-score, replicate 2 = -0.494; robust z-score, replicate 3 = -0.47; inactive. RPL10AP3 (ribosomal protein L10a pseudogene 3) scored robust z-score, replicate 1 = -0.398; robust z-score, replicate 2 = -1.15; robust z-score, replicate 3 = -0.192; inactive.

With knock-down of SWI5 (SWI5 homologous recombination repair protein), the record shows robust z-score, replicate 1 = 2.24; robust z-score, replicate 2 = 2.4; robust z-score, replicate 3 = 2.65; active. After knock-down of CDC42 (cell division cycle 42), the screen gave robust z-score, replicate 1 = -0.89; robust z-score, replicate 2 = -0.219; robust z-score, replicate 3 = 0.615; inactive. TOLLIP (toll interacting protein) showed robust z-score, replicate 1 = -1.4; robust z-score, replicate 2 = -0.872; robust z-score, replicate 3 = -1.08; inactive. With knock-down of NUCB2 (nucleobindin 2), the record shows robust z-score, replicate 1 = 0.198; robust z-score, replicate 2 = 0.903; robust z-score, replicate 3 = -0.954; inactive. Silencing of ATP6V1B1 (ATPase H+ transporting V1 subunit B1) gave: robust z-score, replicate 1 = -0.689; robust z-score, replicate 2 = -0.0825; robust z-score, replicate 3 = -0.867; inactive. After knock-down of FAM86C1P (family with sequence similarity 86 member C1, pseudogene), the record shows robust z-score, replicate 1 = 0.503; robust z-score, replicate 2 = -1.53; robust z-score, replicate 3 = 0.84; inactive.

With knock-down of GPR173 (G protein-coupled receptor 173), the record shows robust z-score, replicate 1 = 0.577; robust z-score, replicate 2 = 1.01; robust z-score, replicate 3 = 0.232; inactive. HTR2A (5-hydroxytryptamine receptor 2A) showed robust z-score, replicate 1 = -0.0854; robust z-score, replicate 2 = -0.0617; robust z-score, replicate 3 = -0.185; inactive. After knock-down of HOXD3 (homeobox D3), the record shows robust z-score, replicate 1 = -0.621; robust z-score, replicate 2 = -0.495; robust z-score, replicate 3 = 0.0477; inactive. After knock-down of EIF4E2 (eukaryotic translation initiation factor 4E family member 2), the record shows robust z-score, replicate 1 = -0.45; robust z-score, replicate 2 = -0.888; robust z-score, replicate 3 = -0.223; inactive. KANSL3 (KAT8 regulatory NSL complex subunit 3) scored robust z-score, replicate 1 = -0.756; robust z-score, replicate 2 = -1.05; robust z-score, replicate 3 = -0.947; inactive. Silencing of ARL10 (ARF like GTPase 10) gave: robust z-score, replicate 1 = 0.471; robust z-score, replicate 2 = -0.0345; robust z-score, replicate 3 = 1.16; inactive.

Just “robust z-score, replicate 3”, for 4 of the entries above:
TOLLIP (toll interacting protein) = -1.08
NUCB2 (nucleobindin 2) = -0.954
ATP6V1B1 (ATPase H+ transporting V1 subunit B1) = -0.867
FAM86C1P (family with sequence similarity 86 member C1, pseudogene) = 0.84
